Test results: the supplement of paper PMC7024190
Where a name gives a salt, the structure may show the parent alone. This is one part of the list. Single values are uncertain here, since repeats match poorly.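 The cells were human embryonic kidney cells carrying a Renilla luciferase gene, driven by the HSV-TK promoter, on a plasmid put in briefly by transfection. This is the first-round screen of about ten thousand compounds, looking for ones that raise reporter output.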

system: HEK 293FT; test: log relative Renilla luciferase luminescence (reporter expression vs reference, reference not stated) (log (base not stated)); higher = higher recombinant reporter expression; conditions: 10 µM; time after transfection 48 h

Structure (SMILES)	log
COc1ccc(-c2cc(=O)c3c(OC)c(OC)c(OC)c(OC)c3o2)cc1OC [nobiletin]	-0.0689
CCCCC(CC)COc1ccc(-c2nc(-c3ccc(OC)cc3)nc(-c3ccc(OCC(CC)CCCC)cc3O)n2)c(O)c1 (centres undefined) [bemotrizinol]	-0.0517
CC/C=C\C/C=C\C/C=C\C/C=C\C/C=C\C/C=C\CCC(=O)O [doconexent]	0.0613
CCC[C@@H]1C[C@@H](C(=O)N[C@@H]([C@H]2O[C@H](SC)[C@H](O)[C@@H](O)[C@H]2O)[C@@H](C)O)N(C)C1 [lincomycin hydrochloride]	0.111
C=C1C(N)CC2CC1C2(C)C (stereo not drawn) [3-amino-beta-pinene]	0.108
CN1CCCN=C1/C=C/c1cccs1 [pyrantel pamoate]	0.106
NNC(=O)c1ccncc1 [isoniazid]	0.124
CC1(C)O[C@@H]2C[C@H]3[C@@H]4C[C@H](F)C5=CC(=O)CC[C@]5(C)[C@H]4[C@@H](O)C[C@]3(C)[C@]2(C(=O)CO)O1 [flurandrenolide]	-0.0581
CCC(=O)OCC(=O)[C@@]1(OC(=O)CC)[C@@H](C)C[C@H]2[C@@H]3CCC4=CC(=O)C=C[C@]4(C)[C@@]3(F)[C@@H](O)C[C@@]21C [betamethasone 17,21-dipropionate]	-0.195
CC1=CCc2c(cc3oc(C)cc(=O)c3c2O)OC1 [ptaeroxylin]	-0.00406
CC1(C)CC2C1CCC1(C)OC1CCC2(C)O (centres undefined) [2-hydroxy-5 (6)epoxy-tetrahydrocaryophyllene]	-0.0586
O=C(O)c1cccnc1 [niacin]	-0.149
CCCCc1oc2ccccc2c1C(=O)c1cc(I)c(OCCN(CC)CC)c(I)c1 [amiodarone hydrochloride]	0.0126
O=c1[nH]c(=O)n([C@H]2C[C@H](O)[C@@H](CO)O2)cc1I [idoxuridine]	0.188
O=c1cccc2ccc(O)c(O)c2c1O [pyrogallin]	-0.0491
Cc1cccc(N(C)C(=S)Oc2ccc3ccccc3c2)c1 [tolnaftate]	0.266
N[C@@H](COP(=O)(O)O)C(=O)O [dexfosfoserine]	0.0223
CCN1CCCC1CNC(=O)c1cc(S(N)(=O)=O)ccc1OC (centres undefined) [sulpiride]	-0.239
COc1ccc(-c2ccc3cc(C(=O)O)ccc3c2)cc1C12CC3CC(CC(C3)C1)C2 [adapalene]	-0.15
COc1ccc(-c2coc3cc(O)ccc3c2=O)c(OC)c1 [2'-methoxyformonetin]	-0.0451
O=C(O)CCC(=O)c1ccc(-c2ccccc2)cc1 [fenbufen]	0.0529
C[C@H]1[C@H](C)CC[C@]2(C(=O)O)CC[C@]3(C)C(=CC[C@@H]4[C@@]5(C)C[C@@H](O)[C@H](O)[C@@](C)(CO)[C@@H]5[C@H](O)C[C@]43C)[C@H]12 [madecassic acid]	0.18
CN1CCN2c3ccccc3Cc3ccccc3C2C1 (centres undefined) [mianserin hydrochloride]	0.0854
N[C@@H](Cc1ccc(O)c(O)c1)C(=O)O [levodopa]	0.316
CCC(C)C(NC)C(=O)O (centres undefined) [n-methylisoleucine]	0.00912

Exported in markdown: entries from further up.

| Structure (SMILES) | log |
| --- | --- |
| CCC[C@@H]1C[C@@H](C(=O)N[C@@H]([C@H]2O[C@H](SC)[C@H](O)[C@@H](O)[C@H]2O)[C@@H](C)O)N(C)C1 [lincomycin hydrochloride] | 0.111 |
| CCN1CCCC1CNC(=O)c1cc(S(N)(=O)=O)ccc1OC (centres undefined) [sulpiride] | -0.239 |
| C[C@H]1[C@H](C)CC[C@]2(C(=O)O)CC[C@]3(C)C(=CC[C@@H]4[C@@]5(C)C[C@@H](O)[C@H](O)[C@@](C)(CO)[C@@H]5[C@H](O)C[C@]43C)[C@H]12 [madecassic acid] | 0.18 |

Further entries.

Structure (SMILES)	log
CN(C)CCc1c[nH]c2ccc(CS(=O)(=O)N3CCCC3)cc12 [almotriptan]	-0.115
COc1cc(O)cc(OC)c1OC [antiarol]	0.0818
O=C(NC(Cc1cc(=O)[nH]c2ccccc12)C(=O)O)c1ccc(Cl)cc1 (centres undefined) [rebamipide]	-0.0631
CC(C)(C)NC[C@H](O)COc1cccc2c1CCCC2=O [levobunolol hydrochloride]	-0.0317
C[N+](C)(C)CCOC(N)=O [carbachol]	-0.0748
COC(=O)C[C@H]1C2(C)CC34OC5(C)O[C@@]6([C@H](OC)C(OC(=O)C(C)C)[C@]7(C)C(/C(=C(/OC)C(C)C)C(=O)O[C@H]7c7ccoc7)[C@@]6(O5)[C@H](OC)[C@@]3(OC)C2OC(C)=O)[C@]14C (some centres undefined) [chukrasin methyl ether]	-0.104
OC[C@H]1O[C@@H](O[C@H]2[C@H](O)[C@@H](O)C(O)O[C@@H]2CO)[C@H](O)[C@@H](O)[C@H]1O (some centres undefined) [lactose monohydrate]	-0.158
COC(=O)/C=C/C(=O)OC [dimethyl fumarate]	-0.0971
CCOC(=O)C1=C(C)NC(C)=C(C(=O)OC)C1c1cccc(Cl)c1Cl (centres undefined) [felodipine]	-0.131
C[C@H](CCC(=O)O)[C@H]1CC[C@H]2[C@@H]3C(=O)C[C@@H]4CC(=O)CC[C@]4(C)[C@H]3CC(=O)[C@]12C [dehydrocholate sodium]	0.0878
C[C@H](CCC(=O)O)[C@H]1CC[C@H]2[C@@H]3C(=O)C[C@@H]4CC(=O)CC[C@]4(C)[C@H]3CC(=O)[C@]12C [dehydrocholic acid]	0.0596
Cc1nc2sccn2c(=O)c1CCN1CCC(=C(c2ccc(F)cc2)c2ccc(F)cc2)CC1 [ritanserin]	0.0126
CO[C@H]1C[C@H](O[C@@H]2/C(C)=C/C[C@@H]3C[C@@H](C[C@]4(CC[C@H](C)[C@@H](C5CCCCC5)O4)O3)OC(=O)[C@@H]3C=C(C)/C(=N/O)[C@H]4OC/C(=C\C=C\[C@@H]2C)[C@]43O)O[C@@H](C)[C@@H]1O [selamectin]	0.174
O=C1c2c(O)ccc(O)c2C(=O)c2c(NCCNCCO)ccc(NCCNCCO)c21 [mitoxantrone hydrochloride]	-0.927
CCN(CC)CCNC(=O)c1cc(Br)c(N)cc1OC [bromopride]	0.104
CCCCC(=O)N(Cc1ccc(-c2ccccc2-c2nnn[nH]2)cc1)[C@H](C(=O)O)C(C)C [valsartan]	0.0443
C[C@H]1C(=O)CC[C@@H]2[C@]1(C)CC[C@H]1[C@@]2(C)CC[C@@]2(C)[C@@H]3CC(C)(C)CC[C@]3(C)CC[C@]12C [friedelin]	0.0789
OC(CCN1CCCCC1)(c1ccccc1)c1ccccc1 [pridinol methanesulfonate]	0.063
CCCCCCCCCCCC[C@@H](C(=O)O)[C@H](C)C(=O)O [roccellic acid]	0.142
CC(C)NNC(=O)c1ccncc1 [iproniazid sulfate]	-0.829
CSCC[C@H](NC(=O)[C@H](Cc1c[nH]c2ccccc12)NC(=O)CCNC(=O)OC(C)(C)C)C(=O)N[C@@H](CC(=O)O)C(=O)N[C@@H](Cc1ccccc1)C(N)=O [pentagastrin]	-0.0962
O=C1c2cccc(O)c2C(=O)c2c(O)cccc21 [danthron]	-0.0586
CCOC(N)=O [urethane]	0.112
C[C@@H]1CC[C@@]2(OC1)O[C@H]1C[C@H]3[C@@H]4CC=C5C[C@@H](O)CC[C@]5(C)[C@H]4CC[C@]3(C)[C@H]1[C@@H]2C [diosgenin]	0.033
O=C(O)c1ccccc1Nc1cccc(C(F)(F)F)c1 [flufenamic acid]	-0.139

Structure (SMILES)	log
OCCc1ccccc1 [phenylethyl alcohol]	0.443
CC(=O)Nc1ccc(S(=O)(=O)c2ccc(NC(C)=O)cc2)cc1 [acedapsone]	-0.0392
O=C1O[C@H]([C@@H](O)CO)C(O)=C1O [ascorbic acid]	0.127
Clc1ccc(C(c2ccccc2Cl)C(Cl)Cl)cc1 (centres undefined) [mitotane]	-0.139
O=C(/C=C/c1ccccc1)c1ccc(O)cc1 [4'-hydroxychalcone]	0.125
CCc1cc(Cl)c(OC)c(C(=O)NC[C@@H]2CCCN2CC)c1O [eticlopride hydrochloride]	-0.0457
CN(C)CCOC(=O)C(c1ccccc1)C1(O)CCCC1 (centres undefined) [cyclopentolate hydrochloride]	-0.117
Nc1ccc(/N=N/c2ccccc2)c(N)n1 [phenazopyridine hydrochloride]	0.136
C[C@H](N[C@@H](CCc1ccccc1)C(=O)O)C(=O)N1Cc2ccccc2C[C@H]1C(=O)O [quinaprilat]	0.195
CCC(=O)O[C@]1(C(=O)SCF)[C@H](C)C[C@H]2[C@@H]3C[C@H](F)C4=CC(=O)C=C[C@]4(C)[C@@]3(F)[C@@H](O)C[C@@]21C [fluticasone propionate]	0.0523
Cc1c(S(=O)(=O)O)oc2c1C(=O)C(=O)c1c-2ccc2c1CCCC2(C)C [tanshinone iia sulfonate sodium]	-0.382
COc1cc(/C=C/C(=O)O)cc(OC)c1O [sinapic acid]	-0.134
NCCCS(=O)(=O)O [tramiprosate]	-0.0483
Nc1nc(/C(=C/CC(=O)O)C(=O)N[C@@H]2C(=O)N3C(C(=O)O)=CCS[C@H]23)cs1 [ceftibuten]	-0.0331
CCc1nn(CCCN2CCN(c3cccc(Cl)c3)CC2)c(=O)n1CCOc1ccccc1 [nefazodone hydrochloride]	-0.229
O=S(=O)(c1cccc2cnccc12)N1CCCNCC1 [fasudil hydrochloride]	-0.0574
C=C[C@@]1(C)CC(=O)[C@@]2(O)[C@](C)(O1)[C@@H](O)[C@@H](O)C1C(C)(C)CC[C@H](O)[C@@]12C (some centres undefined) [desacetylcolforsin]	0.0163
CCCNC(C)(C)COC(=O)c1ccccc1 [meprylcaine hydrochloride]	-0.00023
COc1ccc(C(C)=O)c(OC)c1 [peonol methyl ether]	0.0319
CC(NCCc1ccc(O)cc1)C(O)c1ccc(O)cc1 (centres undefined) [ritodrine hydrochloride]	0.0363
CC(=O)Nc1ccc(OC(C)=O)cc1 [diacetamate]	-0.0425
NC1CCN(c2c(F)cc3c(=O)c(C(=O)O)cn(C4CC4)c3c2Cl)C1 (centres undefined) [clinafoxacin hydrochloride]	-0.152
CCC1(C)CC(=O)NC1=O (centres undefined) [ethosuximide]	-0.0286
O=[N+]([O-])c1ccc(O)c2ncccc12 [nitroxoline]	-0.833
